These results are taken from publication PMC13248803.

Sequences of proteins named here, by UniProt entry; tags and fusion partners are left off.
UniProt Q70EL1: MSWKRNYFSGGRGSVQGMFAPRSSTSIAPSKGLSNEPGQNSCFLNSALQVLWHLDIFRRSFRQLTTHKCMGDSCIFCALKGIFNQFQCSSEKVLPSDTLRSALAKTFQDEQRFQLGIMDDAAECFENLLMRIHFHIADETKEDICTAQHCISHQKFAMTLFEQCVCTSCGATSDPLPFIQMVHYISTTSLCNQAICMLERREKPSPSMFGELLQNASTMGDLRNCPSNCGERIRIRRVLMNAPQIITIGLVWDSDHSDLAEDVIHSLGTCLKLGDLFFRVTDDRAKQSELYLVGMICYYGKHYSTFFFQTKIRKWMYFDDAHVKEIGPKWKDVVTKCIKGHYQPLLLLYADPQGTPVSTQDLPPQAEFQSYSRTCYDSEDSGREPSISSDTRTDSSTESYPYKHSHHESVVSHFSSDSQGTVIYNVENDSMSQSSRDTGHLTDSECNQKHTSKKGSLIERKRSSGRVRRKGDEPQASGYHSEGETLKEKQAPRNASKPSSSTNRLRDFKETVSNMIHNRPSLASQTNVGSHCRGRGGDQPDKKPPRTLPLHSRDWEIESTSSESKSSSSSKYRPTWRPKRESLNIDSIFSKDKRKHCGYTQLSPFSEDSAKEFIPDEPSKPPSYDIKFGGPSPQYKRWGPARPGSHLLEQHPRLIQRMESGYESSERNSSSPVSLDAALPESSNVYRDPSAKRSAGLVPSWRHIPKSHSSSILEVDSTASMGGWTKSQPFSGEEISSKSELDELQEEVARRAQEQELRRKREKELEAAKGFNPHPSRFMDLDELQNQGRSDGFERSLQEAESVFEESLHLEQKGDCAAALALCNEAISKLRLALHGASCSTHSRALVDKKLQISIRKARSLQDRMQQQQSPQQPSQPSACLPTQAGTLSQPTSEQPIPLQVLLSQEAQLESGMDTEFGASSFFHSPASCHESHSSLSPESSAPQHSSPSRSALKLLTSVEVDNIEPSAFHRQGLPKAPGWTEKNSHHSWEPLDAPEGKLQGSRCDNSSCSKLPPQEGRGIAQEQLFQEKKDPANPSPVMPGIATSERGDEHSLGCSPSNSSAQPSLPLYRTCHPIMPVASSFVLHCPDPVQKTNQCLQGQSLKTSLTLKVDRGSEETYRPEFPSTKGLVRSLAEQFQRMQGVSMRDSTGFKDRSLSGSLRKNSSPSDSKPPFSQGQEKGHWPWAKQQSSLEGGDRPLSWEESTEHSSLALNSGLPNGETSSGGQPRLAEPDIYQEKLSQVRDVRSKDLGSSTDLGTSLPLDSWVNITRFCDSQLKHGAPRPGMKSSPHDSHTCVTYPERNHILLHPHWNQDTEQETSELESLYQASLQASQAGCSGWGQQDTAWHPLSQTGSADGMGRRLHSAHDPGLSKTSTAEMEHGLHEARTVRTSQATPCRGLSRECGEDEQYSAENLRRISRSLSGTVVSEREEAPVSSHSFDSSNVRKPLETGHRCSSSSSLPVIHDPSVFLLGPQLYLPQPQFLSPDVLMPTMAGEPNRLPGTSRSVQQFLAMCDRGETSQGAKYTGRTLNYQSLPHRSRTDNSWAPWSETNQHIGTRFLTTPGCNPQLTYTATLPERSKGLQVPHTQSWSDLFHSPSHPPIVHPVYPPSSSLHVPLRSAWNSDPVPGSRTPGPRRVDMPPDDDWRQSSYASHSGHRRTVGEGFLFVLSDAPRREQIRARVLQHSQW

In the test the target is T1, Forkhead box A2 (FOXA2) (human (endogenous in A549)) (UniProt Q9Y261).
T1 sequence: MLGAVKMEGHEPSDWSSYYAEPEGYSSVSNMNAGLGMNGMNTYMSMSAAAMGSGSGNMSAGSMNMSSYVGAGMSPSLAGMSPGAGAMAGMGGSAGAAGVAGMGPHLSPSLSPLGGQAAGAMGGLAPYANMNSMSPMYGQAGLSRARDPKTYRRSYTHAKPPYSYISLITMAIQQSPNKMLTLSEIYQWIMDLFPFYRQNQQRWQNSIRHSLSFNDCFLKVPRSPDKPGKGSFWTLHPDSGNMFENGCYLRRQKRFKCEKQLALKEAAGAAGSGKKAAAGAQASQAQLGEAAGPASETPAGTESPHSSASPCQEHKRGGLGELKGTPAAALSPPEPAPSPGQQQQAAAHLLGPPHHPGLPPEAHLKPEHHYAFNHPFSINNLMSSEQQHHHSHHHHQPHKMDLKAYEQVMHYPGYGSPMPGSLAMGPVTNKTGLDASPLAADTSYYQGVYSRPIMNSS
The experiment in a line: co-IP; A549 cells lysed in NP-40 buffer with protease inhibitors; precleared lysate incubated overnight at 4°C with anti-USP54, anti-FOXA2 or control IgG; protein G-Sepharose; four washes with lysis buffer; western blot. For orientation: Immunoblotting shows a protein as a band on a membrane.

These are yes or no findings as the source states them, for the method shown. In cells and extracts the contact can be indirect. Some binding calls cover weakened binding; strength is not graded here.

Consider “Ubiquitin-specific protease 54 (USP54) (from UniProt Q70EL1 1-1684) (enzyme)”, for which the binding entry was “binds”.
